From the supplement of paper PMC4635364
This is one part of the list. Repeats in this data set agree poorly, so a single value says little.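 Cells: ReNCell VM human fetal ventral-midbrain neural progenitors, differentiated mitogen-free. Blinded raters compared doublecortin-stained (early neurons) or tyrosine hydroxylase-stained (dopaminergic neurons) images with untreated wells, where 0 means no change. After repeats and both raters were averaged, compounds scoring 2 or above became hits for retesting.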

Legend:
[1] = test system: ReNCell VM; assay: neuronal differentiation score (DCX+ cell fraction vs untreated, manual image score) (score (-3 to 3)); higher = more neuronal differentiation; settings: 2 uM, 2 weeks
[2] = test system: ReNCell VM; assay: dopaminergic neuron differentiation score (TH+ cell fraction vs untreated, manual image score) (score (0 to 3)); higher = more TH+ dopaminergic neuron differentiation; settings: 2 uM, 4 weeks, BDNF 10 ng/ml + GDNF 10 ng/ml

O=C(NCc1ccccc1)OCCO
neuronal differentiation score ([1]; library: Spectrum): inactive: 0 | dopaminergic neuron differentiation score ([2]; library: Spectrum): inactive: 0

CCCCOc1ccc(CC(=O)NO)cc1 [Bufexamac]
neuronal differentiation score ([1]; library: Prestwick): inactive: 0 | dopaminergic neuron differentiation score ([2]; library: Prestwick): inactive: 0

CCCCC(=O)N(Cc1ccc(-c2ccccc2-c2nnn[nH]2)cc1)[C@H](C(=O)O)C(C)C
neuronal differentiation score ([1]; library: Spectrum): inactive: 0 | dopaminergic neuron differentiation score ([2]; library: Spectrum): inactive: 0

CC(C(=O)O)c1ccc2c(c1)Cc1cccnc1O2 (stereo unspecified) [Pranoprofen]
neuronal differentiation score ([1]; library: Prestwick): inactive: 0 | dopaminergic neuron differentiation score ([2]; library: Prestwick): inactive: 1

O=C(O)[C@]1(O)C[C@@H](O)[C@@H](O)[C@H](O)C1 [quinic acid]
neuronal differentiation score ([1]; library: Natural): inactive: 0 | dopaminergic neuron differentiation score ([2]; library: Natural): inactive: 0

CC[N+](CC)(CC)CCC(O)(c1ccccc1)C1CCCCC1 (stereo unspecified) [Tridihexethyl chloride]
neuronal differentiation score ([1]; library: Prestwick): inactive: 0 | dopaminergic neuron differentiation score ([2]; library: Prestwick): inactive: 0

COc1cc2c(cc1OC)C1C(=O)c3c(O)cc4c(c3OC1CO2)C=CC(C)(C)O4 (stereo not drawn) [alpha-TOXICAROL (dl)]
neuronal differentiation score ([1]; library: Spectrum): inactive: 0 | dopaminergic neuron differentiation score ([2]; library: Spectrum): inactive: 0

CC(C)[C@H](N)C(=O)OCCOCn1cnc2c(=O)nc(N)[nH]c21
neuronal differentiation score ([1]; library: Spectrum): inactive: -1 | dopaminergic neuron differentiation score ([2]; library: Spectrum): inactive: 0

Oc1ccc(OCc2ccccc2)cc1
neuronal differentiation score ([1]; library: Spectrum): inactive: 0 | dopaminergic neuron differentiation score ([2]; library: Spectrum): inactive: 0

Cc1cn([C@H]2C[C@H](N=[N+]=[N-])[C@@H](CO)O2)c(=O)[nH]c1=O
neuronal differentiation score ([1]; library: Spectrum): inactive: 0 | dopaminergic neuron differentiation score ([2]; library: Spectrum): inactive: 0

CCOC(=O)[C@H](CCc1ccccc1)N[C@@H](C)C(=O)N1[C@H](C(=O)O)C[C@@H]2CCC[C@@H]21
neuronal differentiation score ([1]; library: Spectrum): inactive: 0 | dopaminergic neuron differentiation score ([2]; library: Spectrum): inactive: 0

Cc1cccc(N(C)C(=S)Oc2ccc3ccccc3c2)c1
neuronal differentiation score ([1]; library: Spectrum): inactive: 0 | dopaminergic neuron differentiation score ([2]; library: Spectrum): inactive: 0

NC(N)=N[C@@H](CCC(=O)O)C(=O)O [alpha-Guanidinoglutaric acid]
neuronal differentiation score ([1]; library: LOPAC): inactive: 0 | dopaminergic neuron differentiation score ([2]; library: LOPAC): inactive: 1
